Four sequences from article PMC10721843 can be followed below.

Amino acid sequences for entries named in this document (tags omitted). A change or cut given only in a name is not applied to a line headed by its entry.
UniProt Q02880: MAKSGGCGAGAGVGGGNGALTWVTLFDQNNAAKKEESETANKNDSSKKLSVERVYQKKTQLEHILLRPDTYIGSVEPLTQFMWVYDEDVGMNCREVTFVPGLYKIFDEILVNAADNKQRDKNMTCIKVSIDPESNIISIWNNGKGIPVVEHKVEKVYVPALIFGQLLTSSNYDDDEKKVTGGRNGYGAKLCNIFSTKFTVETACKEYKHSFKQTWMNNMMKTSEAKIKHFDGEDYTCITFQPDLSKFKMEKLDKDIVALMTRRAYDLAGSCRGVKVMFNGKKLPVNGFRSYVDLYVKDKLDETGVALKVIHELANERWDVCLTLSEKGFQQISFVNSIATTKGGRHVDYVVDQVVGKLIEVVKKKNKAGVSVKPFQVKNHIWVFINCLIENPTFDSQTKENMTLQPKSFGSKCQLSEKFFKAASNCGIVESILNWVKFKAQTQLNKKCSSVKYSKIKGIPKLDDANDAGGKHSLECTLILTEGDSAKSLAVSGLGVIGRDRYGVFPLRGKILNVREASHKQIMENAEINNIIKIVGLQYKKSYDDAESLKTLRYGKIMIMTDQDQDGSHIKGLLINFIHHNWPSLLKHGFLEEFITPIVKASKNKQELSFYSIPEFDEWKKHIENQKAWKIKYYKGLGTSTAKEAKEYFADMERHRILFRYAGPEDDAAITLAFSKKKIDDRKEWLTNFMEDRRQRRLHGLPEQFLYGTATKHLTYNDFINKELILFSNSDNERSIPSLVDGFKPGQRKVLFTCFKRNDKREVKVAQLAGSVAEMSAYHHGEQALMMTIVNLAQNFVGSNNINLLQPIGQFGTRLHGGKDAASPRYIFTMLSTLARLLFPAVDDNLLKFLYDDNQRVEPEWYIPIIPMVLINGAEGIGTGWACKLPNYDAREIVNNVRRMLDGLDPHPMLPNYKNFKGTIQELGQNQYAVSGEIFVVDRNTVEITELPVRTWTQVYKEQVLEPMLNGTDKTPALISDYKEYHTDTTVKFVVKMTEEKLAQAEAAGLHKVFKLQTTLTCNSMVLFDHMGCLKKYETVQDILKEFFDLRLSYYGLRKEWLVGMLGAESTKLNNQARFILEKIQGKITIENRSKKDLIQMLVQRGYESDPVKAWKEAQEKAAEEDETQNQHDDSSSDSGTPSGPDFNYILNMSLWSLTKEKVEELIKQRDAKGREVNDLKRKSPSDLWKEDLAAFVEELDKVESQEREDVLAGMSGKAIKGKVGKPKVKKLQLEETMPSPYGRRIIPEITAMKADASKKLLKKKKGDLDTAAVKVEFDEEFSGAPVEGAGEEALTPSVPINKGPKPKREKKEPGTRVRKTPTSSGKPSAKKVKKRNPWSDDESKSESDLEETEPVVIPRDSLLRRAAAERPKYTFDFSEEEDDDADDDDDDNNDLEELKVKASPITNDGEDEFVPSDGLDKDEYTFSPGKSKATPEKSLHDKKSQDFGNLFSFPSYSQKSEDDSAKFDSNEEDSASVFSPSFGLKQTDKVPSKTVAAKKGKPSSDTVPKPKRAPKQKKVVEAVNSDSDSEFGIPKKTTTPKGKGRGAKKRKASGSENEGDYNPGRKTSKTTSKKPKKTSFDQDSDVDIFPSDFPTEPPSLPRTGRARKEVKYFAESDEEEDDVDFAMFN

Construct, isoform or probe ends are uncertain for at least one entry. Where cells or extracts were used, other partners may take part. For some assays here: A weaker result is weaker than the reference pair of the same experiment. For some assays here: At least one verdict rests on a figure or table, not on a statement of the authors.

The target in data set [1] is TOP2B (DNA topoisomerase II beta) (Homo sapiens) (UniProt Q02880). Put plainly: EMSA. The settings on record: Cryo-EM: 20 mM HEPES pH 8.0, 5 mM KCl, 5 mM MgCl2, 0.5 mM ATP, 8.3 uM TOP2B, 16.7 uM DNA, 1.67 uM etoposide; immobilized template: 8.7 mM HEPES pH 7.6, 130 mM KCl; protein in a lysate after overexpression; residues 1-1626.
Data set [2] shares this target. Put plainly: cryo-EM. The settings on record: etoposide, 5 mM MgCl2, 0.5 mM ATP, both strands cleaved, DNA bent about 90 degrees, Cryo-EM: 20 mM HEPES pH 8.0, 5 mM KCl, 8.3 uM TOP2B, 16.7 uM DNA, 1.67 uM etoposide, immobilized template: 8.7 mM HEPES pH 7.6, 130 mM KCl, protein in a lysate after overexpression, residues 1-1626.

With “CCCGGATCCGCCTCTATTTGAAGGGTCTGGAACGGCACGGGTCCGCCTCC (double strand) [EGR1 #3-2]”, in data set [1], the binding result is listed as “binds more weakly”.
“GAGTCGCGAGAGATCCCAGCGCGCAGAACTTGGGGAGCCGCCGCCGCCAT (double strand) [EGR1 #3-3 (EGR1 TSS 50 bp)]”: the binding result in data set [2] and in data set [1] was “binds” each time.
In the case of “GGGCCGGTCCTGCGGCGGCGGAAGCTGGCTGCGGCGGCGG (double strand) [EGR1 #3-4]”, the binding result in data set [1] was “binds more weakly”.
Still for that read-out and setting: as for “GTCGTGACGTACATGGCCATATATGGGAAGCAGGAAGCCCTAATATGGCAGGACCGGCCGGGA (double strand) [EGR1 #3-1]”, the entry is “binds more weakly”.
